# Measurements as given in US7592143B2, “Methods of treating diseases responsive to induction of apoptosis and screening assays” (Cytovia, Inc., priority 2003, dated 2009).
# Amino acid sequences for entries named in this document (tags omitted).
# UniProt P02786, whole entry: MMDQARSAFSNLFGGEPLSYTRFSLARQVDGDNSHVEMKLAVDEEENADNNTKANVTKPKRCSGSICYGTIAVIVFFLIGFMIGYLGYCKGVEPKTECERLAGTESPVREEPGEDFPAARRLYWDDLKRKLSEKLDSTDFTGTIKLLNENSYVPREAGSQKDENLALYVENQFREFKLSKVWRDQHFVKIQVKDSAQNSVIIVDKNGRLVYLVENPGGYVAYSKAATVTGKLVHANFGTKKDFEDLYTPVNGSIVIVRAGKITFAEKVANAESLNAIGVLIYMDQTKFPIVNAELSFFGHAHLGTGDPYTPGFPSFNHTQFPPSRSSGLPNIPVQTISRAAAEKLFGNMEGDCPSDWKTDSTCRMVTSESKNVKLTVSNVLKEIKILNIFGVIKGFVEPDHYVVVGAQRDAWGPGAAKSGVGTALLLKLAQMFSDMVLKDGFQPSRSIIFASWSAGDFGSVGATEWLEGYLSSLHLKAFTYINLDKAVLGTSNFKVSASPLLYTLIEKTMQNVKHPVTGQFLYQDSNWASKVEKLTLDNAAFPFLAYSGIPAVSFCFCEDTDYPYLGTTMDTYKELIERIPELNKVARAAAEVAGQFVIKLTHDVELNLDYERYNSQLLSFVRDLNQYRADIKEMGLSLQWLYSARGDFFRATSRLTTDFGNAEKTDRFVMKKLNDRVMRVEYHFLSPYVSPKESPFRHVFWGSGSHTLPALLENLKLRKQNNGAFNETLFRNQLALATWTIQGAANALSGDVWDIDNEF
# Some entries share one result that the patent states for a list of compounds.
# Legend:
# [1] = target: Transferrin Receptors (Homo sapiens, UniProt P02786); assay: Transferrin receptor binding assay of small molecules: inhibition of biotin-GA binding; details: summary of Table I
# Method: The assay was run similar as described in Example 38. Wells of a 96-well assay plate were coated with 500 ng of HTR in 100 μl of PBS per well overnight at 4° C. These were washed twice with 200 μl of PBS and incubated with 200 μl of 1% BSA solution in PBS and washed twice with 200 μl of PBS. 100 μl of 1 μM biotin-GA solution in binding buffer (PBS/0.1% BSA/0.1% Tween-20) was added per well and incubated for 45 minutes at room temperature. For competition of binding assays biotin-GA was pre-mixed with indicated compounds at various concentrations. Final concentration of DMSO in binding mixtures was adjusted to 1% v/v. Wells were washed 4 times with 200 μl of binding buffer. 100 μl of 100 ng/ml Eu-labeled streptavidin solution in binding buffer were added per well and incubated for 45 minutes at room temperature. Wells were washed twice with 200 μl of binding buffer and twice with 200 μl of PBS. 100 μl of DELFIA Enhancement Solution were added per well and incubated for 10 minutes at room temperature. Plates were read on a Wallac Victor plate reader (Wallac-PerkinElmer Life Sciences) using delayed fluorescence Eu protocol at default manufacturer's settings.
# Coated wells with no competing agent added were used to determine total binding (T). Non-coated wells were used to determine background binding (B). Background binding was consistently lower than 20%. Inhibition of binding was calculated as I=(T−BC)/(T−B)*100%, where BC was a reading corresponding to a well with a competing compound C added.
# Other controls included assays of Biotin-GA binding to the wells coated with 500 μg/well of BSA or mouse Immunoglobulin G, the secondary reagent (Eu-labeled streptavidin) alone binding to the wells coated with […].
# [2] = tested on: T-47D; assay: Caspase cascade activation and induction of apoptosis in solid tumor cells; format: cell-based, Human; details: summary of Table II
# Method: Human breast cancer cell lines T-47D and DLD-1 were grown according to media component mixtures designated by American Type Culture Collection +10% FCS (Invitrogen Corporation), in a 5% CO2-95% humidity incubator at 37° C. T-47D and DLD-1 cells were maintained at a cell density between 50 and 80% confluency at a cell density of 0.1 to 0.6×10^6 cells/mL. Cells were harvested at 600×g and resuspended at 0.65×10^6 cells/mL into appropriate media +10% FCS. An aliquot of 22.5 μL of cells was added to a well of a 384-well microtiter plate containing 2.5 μL of a 10% DMSO in RPMI-1640 media solution containing 0.16 to 100 μM of test compound (0.016 to 10 μM final). An aliquot of 22.5 μL of cells was added to a well of a 384-well microtiter plate containing 2.5 μL of a 10% DMSO in RPMI-1640 media solution without test compound as the control sample. The samples were mixed by agitation and then incubated at 37° C. for 48 h in a 5% CO2-95% humidity incubator. After incubation, the samples were removed from the incubator and 25 μL of a solution containing 14 μM of N-(Ac-DEVD)-N′-ethoxycarbonyl-R110 (SEQ ID NO.: 41) fluorogenic substrate (Cytovia, Inc.; WO99/18856), 20% sucrose (Sigma), 20 mM DTT (Sigma), 200 mM NaCl (Sigma), 40 mM Na PIPES buffer pH 7.2 (Sigma), and 500 μg/mL lysolecithin (Calbiochem) was added. The samples were mixed by agitation and incubated at room temperature. Using a fluorescent plate reader (Model SPECTRAfluor Plus, Tecan), an initial reading (T=0) was made approximately 1-2 min after addition of the substrate solution, employing excitation at 485 nm and emission at 530 nm, to determine the background fluorescence of the control sample. After the 3 h incubation, the samples were read for fluorescence as above (T=3 h).
# The Relative Fluorescence Unit values (RFU) were used to calculate the sample readings as follows: RFU(T=3h)−Control RFU(T=0)=Net RFU(T=3h)
# The activity of caspase cascade activation was determined by the ratio of the net RFU value for test compound to that of control samples. The EC50 (nM) was determined by a sigmoidal dose-response calculation (Prism 3.0, GraphPad Software Inc.).
SMILES,Binding to Transferrin Receptors (in words) [1],Activation of caspases and induction of apoptosis (in words) [2]
"C=CCC12OCC3CC(C=C4C(=O)c5ccccc5OC431)C2=O (stereo not drawn) [Example 17, 1-Allyl-1,3,3a,4,5,12a-hexahydro-7,13-dioxo-1,5-methano-furo[3,4-d]xanthene]",good binding,activate caspases and induce apoptosis in tumor cells
"C=CCC12OCC3CC4(Oc5ccccc5C(=O)C4=CC31)C2=O (stereo not drawn) [Example 18, 1-Allyl-1,3,3a,4,4a,11a-hexahydro-10,12-dioxo-1,4a-methano-furo[3,4-b]xanthene]",good binding,activate caspases and induce apoptosis in tumor cells
"CC(C)=CCC12OC(C)(C)C3CC(C=C4C(=O)c5ccccc5OC431)C2=O (stereo not drawn) [Example 22, 1-(3-Methyl-2-butenyl)-3,3-dimethyl-1,3,3a,4,5,12a-hexahydro-7,13-dioxo-1,5-methano-furo[3,4-d]xanthene]",good binding,activate caspases and induce apoptosis in tumor cells
"CC(C)=CCC12OC(C)(C)C3CC4(Oc5ccccc5C(=O)C4=CC31)C2=O (stereo not drawn) [Example 23, 1-(3-Methyl-2-butenyl)-3,3-dimethyl-1,3,3a,4,4a,11a-hexahydro-10,12-dioxo-1,4a-methano-furo[3,4-b]xanthene]",good binding,activate caspases and induce apoptosis in tumor cells
"CC(C)=CCC12OC(C)(C)C3CC(C=C4C(=O)C=C(c5ccccc5)OC431)C2=O (stereo not drawn) [Example 31, 1-(3-Methyl-2-butenyl)-3,3-dimethyl-1,3,3a,4,5,10a-hexahydro-7,11-dioxo-9-phenyl-1,5-methano-furo[3,4-i]chromene]",good binding,activate caspases and induce apoptosis in tumor cells
"CC(C)=CCC12OC(C)(C)C3CC4(OC(c5ccccc5)=CC(=O)C4=CC31)C2=O (stereo not drawn) [Example 32, 1-(3-Methyl-2-butenyl)-3,3-dimethyl-1,3,3 a,4,4a,9a-hexahydro-8,10-dioxo-6-phenyl-1,4a-methano-furo[3,4-g]chromene]",good binding,activate caspases and induce apoptosis in tumor cells
